# The other results are listed elsewhere or left out.
# B1: Erv41-EDTA (Saccharomyces cerevisiae), Q04651 (protein)
# chain: MKFLVNVALVFMVVYISYIYAAAPEHHHHHHDYDIPTTENLYFQGAMGYIDQQYVVDSQVRDTVQINMDIYVNTKCDWLQINVRDQTMDRKLVLEELQLEEMPFFIPYDTKVNDINEIITPELDEILGEAIPAEFREKLDTRSFFDESDPNKAHLPEFNGCHVFGSIPVNRVSGELQITAKSLGYVASRKAPLEELKFNHVINEFSFGDFYPYIDNPLDNTAQFNQDEPLTTYVYYTSVVPTLFKKLGAEVDTNQYSVNDYRYLYKDVAAKGDKMPGIFFKYNFEPLSIVVSDVRL
# Experiments:
# Experiment in all cases: glycan array binding signal (z-score within array); higher = stronger binding
# Details in all cases: glycan notation: IUPAC condensed, linker removed
# [1] = target: Neu5Ac(a2-6)Gal(b1-4)GlcNAc(b1-2)Man(a1-6)[GlcNAc(b1-2)Man(a1-3)]Man(b1-4)GlcNAc(b1-4)GlcNAc
# In short: (§1)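 Glycan array binding is given as a within-array Z-score, which can be read as non-binding when negative. The arrays, 3228 of them, came from the Consortium for Functional Glycomics database and were retained only where the protein sequence was available. Z-scores were averaged across arrays of the same protein sequence at different concentrations or buffers and across linkers.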
# [2] = target: Neu5Ac(a2-6)Gal(b1-4)GlcNAc(b1-2)Man(a1-6)[Man(a1-3)]Man(b1-4)GlcNAc(b1-4)GlcNAc
# In short: as §1
# [3] = target: Neu5Ac(a2-6)Gal(b1-4)GlcNAc(b1-2)[Neu5Ac(a2-6)Gal(b1-4)GlcNAc(b1-4)]Man(a1-3)[GlcNAc(b1-4)][Neu5Ac(a2-6)Gal(b1-4)GlcNAc(b1-2)[Neu5Ac(a2-6)Gal(b1-4)GlcNAc(b1-6)]Man(a1-6)]Man(b1-4)GlcNAc(b1-4)GlcNAc
# In short: as §1
# [4] = target: Neu5Ac(a2-6)Gal(b1-4)GlcNAc(b1-2)[Neu5Ac(a2-6)Gal(b1-4)GlcNAc(b1-4)]Man(a1-3)[GlcNAc(b1-4)][Neu5Ac(a2-6)Gal(b1-4)GlcNAc(b1-4)Man(a1-6)]Man(b1-4)GlcNAc(b1-4)GlcNAc
# In short: as §1
# [5] = target: Neu5Ac(a2-6)Gal(b1-4)GlcNAc(b1-2)[Neu5Ac(a2-6)Gal(b1-4)GlcNAc(b1-6)]Man(a1-6)[Neu5Ac(a2-6)Gal(b1-4)GlcNAc(b1-2)Man(a1-3)][GlcNAc(b1-4)]Man(b1-4)GlcNAc(b1-4)GlcNAc
# In short: as §1
# [6] = target: Neu5Ac(a2-6)Gal(b1-4)GlcNAc(b1-3)Gal(b1-3)GlcNAc
# In short: as §1
# [7] = target: Neu5Ac(a2-6)Gal(b1-4)GlcNAc(b1-3)Gal(b1-4)GlcNAc
# In short: as §1
# [8] = target: Neu5Ac(a2-6)Gal(b1-4)GlcNAc(b1-3)Gal(b1-4)GlcNAc(b1-2)Man(a1-3)[Neu5Ac(a2-6)Gal(b1-4)GlcNAc(b1-3)Gal(b1-4)GlcNAc(b1-2)Man(a1-6)]GalNAc
# In short: as §1
# [9] = target: Neu5Ac(a2-6)Gal(b1-4)GlcNAc(b1-3)Gal(b1-4)GlcNAc(b1-3)Gal(b1-4)GlcNAc
# In short: as §1
# [10] = target: Neu5Ac(a2-6)Gal(b1-4)GlcNAc(b1-3)Gal(b1-4)GlcNAc(b1-3)Gal(b1-4)GlcNAc(b1-2)Man(a1-3)[Neu5Ac(a2-6)Gal(b1-4)GlcNAc(b1-3)Gal(b1-4)GlcNAc(b1-3)Gal(b1-4)GlcNAc(b1-2)Man(a1-6)]GalNAc
# In short: as §1
# [11] = target: Neu5Ac(a2-6)Gal(b1-4)GlcNAc(b1-3)Gal(b1-4)GlcNAc(b1-3)GalNAc
# In short: as §1
# [12] = target: Neu5Ac(a2-6)Gal(b1-4)GlcNAc(b1-3)Gal(b1-4)GlcNAc(b1-3)[Neu5Ac(a2-6)Gal(b1-4)GlcNAc(b1-3)Gal(b1-4)GlcNAc(b1-6)]GalNAc
# In short: as §1
# [13] = target: Neu5Ac(a2-6)Gal(b1-4)GlcNAc(b1-3)Gal(b1-4)GlcNAc(b1-6)[Gal(b1-3)]GalNAc
# In short: as §1
# [14] = target: Neu5Ac(a2-6)Gal(b1-4)GlcNAc(b1-3)Gal(b1-4)[Fuc(a1-3)]GlcNAc(b1-3)Gal(b1-4)[Fuc(a1-3)]GlcNAc
# In short: as §1
# [15] = target: Neu5Ac(a2-6)Gal(b1-4)GlcNAc(b1-3)GalNAc
# In short: as §1
# [16] = target: Neu5Ac(a2-6)Gal(b1-4)GlcNAc(b1-3)[Neu5Ac(a2-6)Gal(b1-4)GlcNAc(b1-6)]GalNAc
# In short: as §1
# [17] = target: Neu5Ac(a2-6)Gal(b1-4)GlcNAc(b1-6)GalNAc
# In short: as §1
# [18] = target: Neu5Ac(a2-6)Gal(b1-4)GlcNAc(b1-6)[Gal(b1-3)GlcNAc(b1-3)]Gal(b1-4)Glc
# In short: as §1
# [19] = target: Neu5Ac(a2-6)Gal(b1-4)GlcNAc(b1-6)[Gal(b1-3)]GalNAc
# In short: as §1
# [20] = target: Neu5Ac(a2-6)Gal(b1-4)GlcNAc6S
# In short: as §1
# [21] = target: Neu5Ac(a2-6)GalNAc
# In short: as §1
# [22] = target: Neu5Ac(a2-6)GalNAc(b1-4)GlcNAc
# In short: as §1
# [23] = target: Neu5Ac(a2-6)GalNAc(b1-4)GlcNAc6S
# In short: as §1
binder,measurement,setting,value
B1,glycan array binding signal (z-score),[1],-0.992
same,glycan array binding signal (z-score),[2],-0.283
same,glycan array binding signal (z-score),[3],-0.852
same,glycan array binding signal (z-score),[4],-0.319
same,glycan array binding signal (z-score),[5],0.237
same,glycan array binding signal (z-score),[6],0.875
same,glycan array binding signal (z-score),[7],-0.708
same,glycan array binding signal (z-score),[8],-0.499
same,glycan array binding signal (z-score),[9],0.013
same,glycan array binding signal (z-score),[10],2.65
same,glycan array binding signal (z-score),[11],0.271
same,glycan array binding signal (z-score),[12],0.552
same,glycan array binding signal (z-score),[13],0.802
same,glycan array binding signal (z-score),[14],0.965
same,glycan array binding signal (z-score),[15],-0.606
same,glycan array binding signal (z-score),[16],0.711
same,glycan array binding signal (z-score),[17],0.322
same,glycan array binding signal (z-score),[18],-0.507
same,glycan array binding signal (z-score),[19],0.134
same,glycan array binding signal (z-score),[20],-0.865
same,glycan array binding signal (z-score),[21],0.272
same,glycan array binding signal (z-score),[22],-0.572
same,glycan array binding signal (z-score),[23],0.108

# 2 entries from above, set out differently.
binder | measurement | setting | value
B1 | glycan array binding signal (z-score) | [2] | -0.283
same | glycan array binding signal (z-score) | [3] | -0.852

# From the supplement of paper PMC8728848
